Assay results published in the supplement of paper PMC10849652.
The list shows a part of the results.

Chains of the proteins cited; added tags and fusions are not shown. Lines headed by an entry give the natural chain unless they say otherwise; changes in a name come on top.
UniProt Q9Y5T4: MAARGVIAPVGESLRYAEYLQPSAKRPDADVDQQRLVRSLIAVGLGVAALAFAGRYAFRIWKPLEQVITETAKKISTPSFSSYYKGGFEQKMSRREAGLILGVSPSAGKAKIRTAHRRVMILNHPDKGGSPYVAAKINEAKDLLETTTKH
UniProt Q66K89: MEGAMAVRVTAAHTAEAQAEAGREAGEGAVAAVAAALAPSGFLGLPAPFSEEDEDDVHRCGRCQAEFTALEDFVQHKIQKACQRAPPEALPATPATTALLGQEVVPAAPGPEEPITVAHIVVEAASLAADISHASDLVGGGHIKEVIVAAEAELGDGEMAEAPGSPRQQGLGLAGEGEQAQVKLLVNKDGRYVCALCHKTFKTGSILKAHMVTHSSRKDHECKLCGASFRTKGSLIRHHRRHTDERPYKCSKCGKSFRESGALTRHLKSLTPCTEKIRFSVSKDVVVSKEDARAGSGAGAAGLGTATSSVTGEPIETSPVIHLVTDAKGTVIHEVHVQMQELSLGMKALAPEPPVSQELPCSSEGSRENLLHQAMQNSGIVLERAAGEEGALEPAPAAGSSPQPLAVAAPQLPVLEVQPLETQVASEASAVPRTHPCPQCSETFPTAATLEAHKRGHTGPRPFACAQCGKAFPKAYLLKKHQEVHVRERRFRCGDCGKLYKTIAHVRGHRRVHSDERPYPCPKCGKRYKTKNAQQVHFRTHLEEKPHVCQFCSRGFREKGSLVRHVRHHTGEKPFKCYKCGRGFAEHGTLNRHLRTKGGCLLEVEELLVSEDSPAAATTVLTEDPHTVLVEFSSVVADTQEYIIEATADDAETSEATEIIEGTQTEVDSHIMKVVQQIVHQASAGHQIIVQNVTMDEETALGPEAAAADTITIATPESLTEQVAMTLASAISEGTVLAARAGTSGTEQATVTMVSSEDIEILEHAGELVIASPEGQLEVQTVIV
UniProt Q7L591: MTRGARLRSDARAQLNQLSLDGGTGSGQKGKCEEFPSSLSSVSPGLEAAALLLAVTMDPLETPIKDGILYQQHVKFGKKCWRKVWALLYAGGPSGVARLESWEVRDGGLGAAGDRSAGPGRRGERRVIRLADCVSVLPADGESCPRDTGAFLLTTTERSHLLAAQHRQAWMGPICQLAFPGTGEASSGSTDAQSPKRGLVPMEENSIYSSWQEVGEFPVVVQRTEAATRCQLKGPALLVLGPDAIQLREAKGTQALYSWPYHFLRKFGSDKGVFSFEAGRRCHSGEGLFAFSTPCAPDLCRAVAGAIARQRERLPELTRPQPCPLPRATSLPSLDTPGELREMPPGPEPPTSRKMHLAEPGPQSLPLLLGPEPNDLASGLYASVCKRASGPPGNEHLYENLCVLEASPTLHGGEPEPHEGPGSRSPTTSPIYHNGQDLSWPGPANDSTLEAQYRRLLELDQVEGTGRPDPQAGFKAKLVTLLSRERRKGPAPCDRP
UniProt Q16610: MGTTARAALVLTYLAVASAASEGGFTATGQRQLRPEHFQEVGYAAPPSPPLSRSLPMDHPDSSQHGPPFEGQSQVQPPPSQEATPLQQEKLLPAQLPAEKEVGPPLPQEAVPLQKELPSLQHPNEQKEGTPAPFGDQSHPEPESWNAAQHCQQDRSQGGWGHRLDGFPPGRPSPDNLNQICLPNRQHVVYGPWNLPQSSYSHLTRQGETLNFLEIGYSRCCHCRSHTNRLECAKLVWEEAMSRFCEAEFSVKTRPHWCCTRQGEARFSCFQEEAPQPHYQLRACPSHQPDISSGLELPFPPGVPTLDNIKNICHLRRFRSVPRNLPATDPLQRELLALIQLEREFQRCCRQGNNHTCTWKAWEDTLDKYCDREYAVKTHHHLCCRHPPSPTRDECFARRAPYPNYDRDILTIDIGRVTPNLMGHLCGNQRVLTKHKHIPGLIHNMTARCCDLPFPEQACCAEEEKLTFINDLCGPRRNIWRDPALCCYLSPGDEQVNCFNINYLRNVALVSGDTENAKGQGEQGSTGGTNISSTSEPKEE
UniProt Q6P1R4: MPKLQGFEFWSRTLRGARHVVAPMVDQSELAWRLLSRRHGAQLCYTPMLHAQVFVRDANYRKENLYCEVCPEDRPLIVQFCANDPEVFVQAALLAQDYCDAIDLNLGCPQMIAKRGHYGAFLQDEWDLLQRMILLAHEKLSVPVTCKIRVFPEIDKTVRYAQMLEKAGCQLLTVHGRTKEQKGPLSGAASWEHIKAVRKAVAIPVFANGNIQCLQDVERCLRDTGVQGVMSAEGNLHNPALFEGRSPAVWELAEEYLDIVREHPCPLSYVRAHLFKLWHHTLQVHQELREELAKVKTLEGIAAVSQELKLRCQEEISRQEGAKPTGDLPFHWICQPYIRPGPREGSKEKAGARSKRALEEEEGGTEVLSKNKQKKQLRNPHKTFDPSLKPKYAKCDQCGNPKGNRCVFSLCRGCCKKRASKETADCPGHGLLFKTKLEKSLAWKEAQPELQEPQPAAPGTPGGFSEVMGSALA
UniProt Q14195, whole entry, looked up: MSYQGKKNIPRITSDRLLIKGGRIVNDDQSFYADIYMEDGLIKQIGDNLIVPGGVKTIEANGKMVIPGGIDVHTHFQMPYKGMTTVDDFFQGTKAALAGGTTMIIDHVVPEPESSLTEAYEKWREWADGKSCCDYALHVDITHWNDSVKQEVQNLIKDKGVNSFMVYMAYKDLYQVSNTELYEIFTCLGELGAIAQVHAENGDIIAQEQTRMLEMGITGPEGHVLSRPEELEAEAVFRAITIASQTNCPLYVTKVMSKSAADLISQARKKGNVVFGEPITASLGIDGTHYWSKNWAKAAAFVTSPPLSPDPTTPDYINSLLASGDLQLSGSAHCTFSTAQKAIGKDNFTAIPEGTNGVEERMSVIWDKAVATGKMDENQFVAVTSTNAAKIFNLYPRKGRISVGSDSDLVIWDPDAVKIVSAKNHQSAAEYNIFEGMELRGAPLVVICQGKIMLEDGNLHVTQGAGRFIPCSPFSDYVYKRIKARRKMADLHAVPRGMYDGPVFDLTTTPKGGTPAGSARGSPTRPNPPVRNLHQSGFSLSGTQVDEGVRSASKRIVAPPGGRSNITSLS
UniProt Q9H8V3: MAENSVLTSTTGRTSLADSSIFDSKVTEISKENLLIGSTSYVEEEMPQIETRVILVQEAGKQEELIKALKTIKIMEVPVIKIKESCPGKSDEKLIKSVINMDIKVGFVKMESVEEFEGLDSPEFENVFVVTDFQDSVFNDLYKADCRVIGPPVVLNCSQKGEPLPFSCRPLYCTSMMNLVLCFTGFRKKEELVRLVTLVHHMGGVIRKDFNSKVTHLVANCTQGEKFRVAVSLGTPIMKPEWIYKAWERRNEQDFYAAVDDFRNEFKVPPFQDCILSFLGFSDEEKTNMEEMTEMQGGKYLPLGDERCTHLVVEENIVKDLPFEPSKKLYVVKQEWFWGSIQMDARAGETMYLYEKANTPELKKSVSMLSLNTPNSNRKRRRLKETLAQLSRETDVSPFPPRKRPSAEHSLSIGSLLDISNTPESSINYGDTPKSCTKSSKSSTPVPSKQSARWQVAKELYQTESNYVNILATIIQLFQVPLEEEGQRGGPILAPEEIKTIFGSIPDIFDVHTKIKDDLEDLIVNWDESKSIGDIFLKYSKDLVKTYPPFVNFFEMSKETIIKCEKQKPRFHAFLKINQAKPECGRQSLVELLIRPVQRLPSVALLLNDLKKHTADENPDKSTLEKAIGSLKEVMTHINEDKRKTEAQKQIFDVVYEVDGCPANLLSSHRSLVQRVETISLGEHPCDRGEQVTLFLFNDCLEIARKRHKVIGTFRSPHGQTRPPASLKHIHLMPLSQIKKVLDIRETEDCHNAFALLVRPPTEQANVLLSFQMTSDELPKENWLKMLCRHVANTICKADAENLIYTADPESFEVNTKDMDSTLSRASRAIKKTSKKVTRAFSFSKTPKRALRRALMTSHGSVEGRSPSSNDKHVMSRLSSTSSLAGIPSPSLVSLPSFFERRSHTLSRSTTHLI
UniProt Q96FN9: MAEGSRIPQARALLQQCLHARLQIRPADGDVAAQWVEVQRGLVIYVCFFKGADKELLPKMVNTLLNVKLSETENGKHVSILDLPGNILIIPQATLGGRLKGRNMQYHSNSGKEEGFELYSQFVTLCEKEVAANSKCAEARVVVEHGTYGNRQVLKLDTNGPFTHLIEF
UniProt Q9UPQ8: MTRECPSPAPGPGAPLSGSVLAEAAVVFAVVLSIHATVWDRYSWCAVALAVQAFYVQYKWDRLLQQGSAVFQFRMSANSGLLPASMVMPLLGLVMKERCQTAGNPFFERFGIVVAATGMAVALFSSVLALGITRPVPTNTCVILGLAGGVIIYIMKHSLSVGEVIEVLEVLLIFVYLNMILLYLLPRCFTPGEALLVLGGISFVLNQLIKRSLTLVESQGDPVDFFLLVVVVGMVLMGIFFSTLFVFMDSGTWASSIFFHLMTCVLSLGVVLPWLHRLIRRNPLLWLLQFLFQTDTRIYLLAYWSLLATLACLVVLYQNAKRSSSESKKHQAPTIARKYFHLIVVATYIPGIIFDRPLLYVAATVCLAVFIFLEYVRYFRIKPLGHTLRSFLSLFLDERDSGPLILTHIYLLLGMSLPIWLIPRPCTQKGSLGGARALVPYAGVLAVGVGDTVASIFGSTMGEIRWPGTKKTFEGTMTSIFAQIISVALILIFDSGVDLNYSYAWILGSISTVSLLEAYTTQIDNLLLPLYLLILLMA
UniProt Q8WTR2: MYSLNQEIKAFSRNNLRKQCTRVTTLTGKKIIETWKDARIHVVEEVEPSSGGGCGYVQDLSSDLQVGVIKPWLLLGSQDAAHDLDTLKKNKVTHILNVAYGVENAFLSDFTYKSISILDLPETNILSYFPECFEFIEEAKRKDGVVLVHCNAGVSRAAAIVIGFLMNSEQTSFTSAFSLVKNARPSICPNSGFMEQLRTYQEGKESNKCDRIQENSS
UniProt Q3B7T1: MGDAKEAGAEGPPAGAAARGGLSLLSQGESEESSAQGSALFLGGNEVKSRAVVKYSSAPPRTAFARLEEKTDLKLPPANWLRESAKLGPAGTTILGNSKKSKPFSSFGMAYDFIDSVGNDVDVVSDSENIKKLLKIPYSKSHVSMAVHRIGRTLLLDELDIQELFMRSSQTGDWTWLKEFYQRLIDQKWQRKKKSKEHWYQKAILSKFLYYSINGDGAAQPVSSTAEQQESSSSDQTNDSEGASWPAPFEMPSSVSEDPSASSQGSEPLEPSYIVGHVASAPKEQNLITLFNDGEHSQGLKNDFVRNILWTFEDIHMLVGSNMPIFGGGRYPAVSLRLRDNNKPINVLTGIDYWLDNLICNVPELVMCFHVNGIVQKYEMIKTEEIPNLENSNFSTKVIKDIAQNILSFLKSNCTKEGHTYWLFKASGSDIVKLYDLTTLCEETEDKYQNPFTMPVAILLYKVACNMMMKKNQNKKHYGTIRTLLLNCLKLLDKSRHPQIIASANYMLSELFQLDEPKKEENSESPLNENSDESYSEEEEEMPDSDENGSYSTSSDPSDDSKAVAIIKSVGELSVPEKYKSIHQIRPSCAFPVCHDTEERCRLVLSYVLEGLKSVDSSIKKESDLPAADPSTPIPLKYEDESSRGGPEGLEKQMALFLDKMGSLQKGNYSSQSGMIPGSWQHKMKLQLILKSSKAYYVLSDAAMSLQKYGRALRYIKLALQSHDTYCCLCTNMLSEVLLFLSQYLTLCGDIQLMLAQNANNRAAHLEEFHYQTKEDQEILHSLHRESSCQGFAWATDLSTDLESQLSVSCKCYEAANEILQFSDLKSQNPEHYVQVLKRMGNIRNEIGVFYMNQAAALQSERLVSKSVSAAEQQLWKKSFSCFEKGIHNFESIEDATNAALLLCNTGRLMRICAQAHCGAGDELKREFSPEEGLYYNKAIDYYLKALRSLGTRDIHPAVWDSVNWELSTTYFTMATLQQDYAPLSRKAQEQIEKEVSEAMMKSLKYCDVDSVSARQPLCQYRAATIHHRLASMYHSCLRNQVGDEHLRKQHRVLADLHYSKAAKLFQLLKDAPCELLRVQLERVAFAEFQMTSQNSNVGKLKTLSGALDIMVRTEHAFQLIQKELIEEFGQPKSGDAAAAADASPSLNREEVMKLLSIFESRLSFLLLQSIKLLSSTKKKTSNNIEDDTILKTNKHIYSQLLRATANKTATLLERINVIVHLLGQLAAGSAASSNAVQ
UniProt Q9UBS3: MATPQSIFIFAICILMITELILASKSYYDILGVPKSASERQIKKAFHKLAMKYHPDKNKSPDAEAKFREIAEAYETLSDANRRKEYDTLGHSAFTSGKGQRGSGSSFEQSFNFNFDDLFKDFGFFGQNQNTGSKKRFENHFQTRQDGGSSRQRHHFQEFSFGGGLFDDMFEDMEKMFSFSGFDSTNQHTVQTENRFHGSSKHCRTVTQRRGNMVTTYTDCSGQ

Tests used:
Experiment in all cases: log2 fold change, soluble protein after heating vs DMSO (PISA); higher = thermal stabilisation; K562 cells, 10 uM, 30 min; active = over 0.2 and 3.5 SD of the protein, either way, in both replicates (recomputed)
volasertib = compound: CC[C@@H]1C(=O)N(C)c2cnc(Nc3ccc(C(=O)N[C@H]4CC[C@H](N5CCN(CC6CC6)CC5)CC4)cc3OC)nc2N1C(C)C [volasertib]
Summary of the method: (§1)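 Soluble protein was defined as the supernatant after 21,000xg for 90 min. It came from K562 cells at 2×10^6 cells/mL given 10 μM compound for 30 min, heated in aliquots for 3 min across 48°C-58°C, pooled, and extracted in PBS with 0.5% NP-40 at 4°C, and was quantified by TMTpro 16plex LC-MS/MS with equalised channel sums. Thermal stability against control samples, from duplicates, is reported as log2 fold change.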

sotrastaurin = compound: CN1CCN(c2nc(C3=C(c4c[nH]c5ccccc45)C(=O)NC3=O)c3ccccc3n2)CC1 [sotrastaurin]
Summary of the method: as §1

[1] = compound: CC[C@H](C)N1C=C(C2=C(C=C(C=C21)C3=CN=C(C=C3)N4CCNCC4)C(=O)NCC5=C(C=C(NC5=O)C)C)C
Summary of the method: as §1

[2] = compound: CCn1cc(-c2ccnc3[nH]c(-c4cccc(CN(C)C)c4)cc23)c(-c2ccc(NC(=O)N(C)C)cc2)n1
Summary of the method: as §1

[3] = compound: CN(C)CC(=O)Nc1ccc2[nH]c(=O)c3ccccc3c2c1
Summary of the method: as §1

[4] = compound: CN1C2=C(C3=C1C(=O)N(N=C3)CC4=CC(=CC=C4)N)SC(=C2)S(=O)C
Summary of the method: as §1

[5] = compound: CN1CCC(CNc2ccc3ncc(-c4cccc(OC(F)(F)F)c4)n3n2)CC1
Summary of the method: as §1

saracatinib = compound: CN1CCN(CCOc2cc(OC3CCOCC3)c3c(Nc4c(Cl)ccc5c4OCO5)ncnc3c2)CC1 [saracatinib]
Summary of the method: as §1

defactinib = compound: CNC(=O)c1ccc(Nc2ncc(C(F)(F)F)c(NCc3nccnc3N(C)S(C)(=O)=O)n2)cc1 [defactinib]
Summary of the method: as §1

[6] = compound: CNc1nc(-c2ccc3c(N)n[nH]c3c2)cc(N2C[C@@H](C(=O)NC3CCCCC3)CC[C@H]2C)n1
Summary of the method: as §1

[7] = compound: COC(=O)[C@H](CCSC)NC(=O)C1=C(C=C(C=C1)NC[C@H](CS)N)C2=CC=CC=C2
Summary of the method: as §1

epoxomicin = compound: CC[C@H](C)[C@@H](C(=O)N[C@@H]([C@@H](C)O)C(=O)N[C@@H](CC(C)C)C(=O)[C@]1(CO1)C)NC(=O)[C@H]([C@@H](C)CC)N(C)C(=O)C [epoxomicin]
Summary of the method: as §1

rosiglitazone = compound: CN(CCOC1=CC=C(C=C1)C[C@H]2C(=O)NC(=O)S2)C3=CC=CC=N3 (racemic) [rosiglitazone]
Summary of the method: as §1

alvocidib = compound: CN1CC[C@H](c2c(O)cc(O)c3c(=O)cc(-c4ccccc4Cl)oc23)[C@H](O)C1 [alvocidib]
Summary of the method: as §1

Tubastatin A = compound: CN1CCc2c(c3ccccc3n2Cc2ccc(C(=O)NO)cc2)C1 [Tubastatin A]
Summary of the method: as §1

[8] = compound: CCn1c(C(=O)N(C2CC2)C2CC2)cc2c3c(ncn3C)c(Nc3cc(C)n(C)n3)nc21
Summary of the method: as §1

[9] = compound: CNC(=O)C1=CC=CC=C1NC2=NC(=NC=C2Cl)NC3=C(C=C(C=C3)N4CCOCC4)OC
Summary of the method: as §1

[10] = compound: CC[C@@H]1C(=O)N(C)c2cnc(Nc3ccc(C(=O)NC4CCN(C)CC4)cc3OC)nc2N1C1CCCC1
Summary of the method: as §1

rucaparib = compound: CNCc1ccc(-c2[nH]c3cc(F)cc4c3c2CCNC4=O)cc1 [rucaparib]
Summary of the method: as §1

encorafenib = compound: COC(=O)N[C@@H](C)CNc1nccc(-c2cn(C(C)C)nc2-c2cc(Cl)cc(NS(C)(=O)=O)c2F)n1 [encorafenib]
Summary of the method: as §1

Measured: log2 fold change

DNAJC15 (UniProt Q9Y5T4)
inactive: volasertib 0.125 | sotrastaurin 0.088

DNAJB14 (UniProt H7C494)
inactive: volasertib 0.065 | [1] -0.039 | [2] -0.03 | [3] -0.03 | [4] -0.027 | [5] 0.068 | saracatinib 0.193 | defactinib 0.028 | [6] -0.116 | [7] 0.079

E4F1 (UniProt Q66K89)
inactive: volasertib 0 | epoxomicin 0.035 | [2] -0.029 | [3] -0.103 | rosiglitazone -0.192 | [4] -0.023 | [5] -0.009 | saracatinib 0.121 | sotrastaurin 0.109 | alvocidib -0.064 | Tubastatin A -0.003 | defactinib -0.045 | [6] -0.099 | [7] 0.166

DOK3 (UniProt Q7L591)
inactive: volasertib -0.482 | epoxomicin -0.054 | [8] -0.032 | [2] -0.023 | [3] 0.062 | rosiglitazone 0.123 | [4] -0.018 | [5] 0.144 | saracatinib -0.039 | sotrastaurin -0.056 | alvocidib -0.013 | Tubastatin A 0.11 | [9] -0.017 | defactinib -0.101 | [6] 0.033 | [7] -0.136

ECM1 isoform 2 (UniProt Q16610)
inactive: [1] 0.212 | [3] 0.332 | rosiglitazone 0.089 | Tubastatin A 0.163 | defactinib 0.085 | [7] -0.081

3 neighbouring records out of the list so far, quoted:
DNAJB14 (UniProt H7C494)
inactive: volasertib 0.065 | [1] -0.039 | [2] -0.03 | [3] -0.03 | [4] -0.027 | [5] 0.068 | saracatinib 0.193 | defactinib 0.028 | [6] -0.116 | [7] 0.079

E4F1 (UniProt Q66K89)
inactive: volasertib 0 | epoxomicin 0.035 | [2] -0.029 | [3] -0.103 | rosiglitazone -0.192 | [4] -0.023 | [5] -0.009 | saracatinib 0.121 | sotrastaurin 0.109 | alvocidib -0.064 | Tubastatin A -0.003 | defactinib -0.045 | [6] -0.099 | [7] 0.166

DOK3 (UniProt Q7L591)
inactive: volasertib -0.482 | epoxomicin -0.054 | [8] -0.032 | [2] -0.023 | [3] 0.062 | rosiglitazone 0.123 | [4] -0.018 | [5] 0.144 | saracatinib -0.039 | sotrastaurin -0.056 | alvocidib -0.013 | Tubastatin A 0.11 | [9] -0.017 | defactinib -0.101 | [6] 0.033 | [7] -0.136

The listing continues:

DUS1L (UniProt Q6P1R4)
inactive: [8] 0.177 | [2] -0.129 | [5] -0.047 | alvocidib 0.11 | Tubastatin A -0.004 | [9] 0.084

DPYSL3 isoform 2 (UniProt Q14195)
inactive: volasertib 0.043 | [8] -0.21 | [2] -0.317 | [3] 0.33 | [4] -0.303 | [5] -0.11 | saracatinib -0.32 | [9] 0.195 | defactinib -0.207 | [6] 0.102 | [7] -0.114

ECT2 isoform 3 (UniProt Q9H8V3)
inactive: [10] -0.199 | epoxomicin 0.268 | sotrastaurin -0.997 | rucaparib 0.244 | encorafenib 0.215

DTD2 (UniProt Q96FN9)
inactive: volasertib -0.012 | [1] 0.192 | epoxomicin -0.056 | [8] -0.043 | [2] 0.023 | [3] 0.027 | [4] -0.092 | [5] 0.256 | saracatinib 0.026 | sotrastaurin -0.01 | alvocidib -0.078 | Tubastatin A -0.003 | [9] -0.028 | defactinib -0.033 | [6] 0.091 | [7] -0.021

DOLK (UniProt Q9UPQ8)
inactive: [1] -0.041 | epoxomicin 0.037 | [8] -0.015 | rosiglitazone 0.089 | sotrastaurin -0.111 | alvocidib 0.095 | [9] 0.02

DUSP19 (UniProt Q8WTR2)
inactive: [8] -0.088 | [9] 0.086

EDRF1 (UniProt Q3B7T1)
inactive: [10] 0.046 | epoxomicin 0.009 | [2] -0.046 | [4] 0.006 | [5] -0.014 | saracatinib 0.104 | sotrastaurin 0.012 | [9] -0.111 | rucaparib 0.098 | [6] 0.07 | encorafenib 0.058

DNAJB9 (UniProt Q9UBS3)
inactive: [8] -0.132 | [2] 0.197 | [5] -0.032 | [9] 0.088
